Experimental data published in PMC11918387.
These are yes or no findings as the source states them, for the method shown. Binding seen in cells or lysates may run through a third protein. These calls come from enrichment with a bait or labelling near it, and not all partners need be listed.

Amino acid sequences for entries named in this document (tags omitted). A change or cut given only in a name is not applied to a line headed by its entry.
UniProt Q09871: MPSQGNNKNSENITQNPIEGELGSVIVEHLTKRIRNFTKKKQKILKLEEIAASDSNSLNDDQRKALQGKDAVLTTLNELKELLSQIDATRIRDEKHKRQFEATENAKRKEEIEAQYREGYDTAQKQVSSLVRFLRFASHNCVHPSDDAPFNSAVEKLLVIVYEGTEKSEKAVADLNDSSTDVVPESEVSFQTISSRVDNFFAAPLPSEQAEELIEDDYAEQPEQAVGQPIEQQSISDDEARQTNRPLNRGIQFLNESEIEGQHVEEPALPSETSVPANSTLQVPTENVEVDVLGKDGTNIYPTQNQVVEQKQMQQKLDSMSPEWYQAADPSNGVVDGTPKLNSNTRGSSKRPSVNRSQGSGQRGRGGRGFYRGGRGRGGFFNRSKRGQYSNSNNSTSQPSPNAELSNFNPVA

B1: Nxt3 (protein, UniProt O94260 1-434)
chain: MTAENATLLEPVLGKDEIGWMFVQEYYTYLNKEPNRLHCFYTKKSTLIHGDEGESISLCHGQQEIHNKILDLDFQNCKVLISNVDSLASSNGGIVIQVLGEMSNKGKLSRKFAQTFFLAEQPNGYFVLNDIFRFLREDVEEEEESPDAVEKEKKDVASEPYVNGVQSQEHLPSAKEEGHYQDPAATENNFATAALISNETDSLNQATLAVPEEPVIQVTEASVPSFVSQQENQLQDEALTSNSKNADAIGASDANVATAPKSWADLIARNHPDVKSQASVSSTASTTGQTVKGVNADQTQQPTAPYTQSNELLETSVFVKNIPPETSDVSLKSAMSIFGPVKAIEFARRKGTAYVDFVNHECVQLALNKKTLQINNATLNIEERRRLFSGKFNKSGDKKSNDNYNGMKRNFRKGNRGAFDGRSKEVTTSKKQNN
B2: Ubp3 (protein, UniProt O94269 1-512)
chain: MRDLTSATDSASLESDSSRNQFIINSLLPWYSCSEHEFPHRKARKRRSPKNLDWSVSVQMPLVTSKTKESEKSPKSWSAIAKKHVQGDSPVKKSHSVPVPSDRSEKKSFNSSLGELIETYSPSLDAPRPIQPRGFINTGNICFMNSILQALMYCVPFYNLLKQINRMVPYNFERTTPLIESLTMLSRDFREYSEKFDLQGDSILPEVVYSATKGNPRFEMLQTGEQEDAEEFLNLFLDELHEEFVRERRHYLLKNDERNPKSDIKISNGIKSGLDSFDDQSSVEASGWTEVGKNKKPVIARSATVERSPISQIFGGQLRSTLRVPSARDSVLLEPFQPLQLDIQAEDIHSVIDALEHMTAPEILPEWHSSKGNVTATKQMYIESLPPVLILHLKRFFYEASGGTQKNYKPIAYPARLSIPQNVFSPSVRGSIHPEYDLNAVVYHHGTSASGGHYTVDVQQLDKSGWFRIDDTHIHRVPIHDVENSELSADPSLSKLGHGDRVAYLLFYTRRS

Target: Cpn1-FLAG (fission yeast Caprin protein Cpn1, product of SPAC12G12.07c) (S. pombe) (UniProt Q09871)
Test: affinity purification with mass spectrometry; anti-FLAG immunoprecipitation (Protein G Dynabeads) of Cpn1-FLAG from S. pombe lysate; 50 mM HEPES-NaOH pH 7.5, 150 mM KCl, 0.1% NP-40; 90 min at 4°C; Benzonase treatment on beads; LC-MS/MS; untagged control strains; two independent experiments

| Binder | binding |
| --- | --- |
| B1 | binds |
| B2 | binds |
